This is an account of results in patent US20140024677A1, “METHODS FOR INDUCING MITOCHONDRIAL BIOGENESIS” (MUSC Foundation For Research Development, priority 2012, published 2014).

Molecules are shown by their SMILES. Values joined by “and” are separate entries in the source; they are usually repeats but may differ in a detail not shown here. Equal entries are not always repeated. Where two headings read alike, the source gives them in different places.

For test [1], the system named is PGC-1α, ATP6, ND1, ND6, NDUFB8 mRNA in heart.
The subject of test [2] is PGC-1α in skeletal muscle. As to conditions: 24 h after injection of 100 μg/kg; cited from earlier work.
Test [3] concerns adult feline cardiomyocytes (AFC). The test is classed as cell-based. As to conditions: 24 hr, formoterol 10 and 30 nM.
In the next test the test system is RPTC. The settings on record: 30 nM, 24 h, relative to DMSO controls.
The subject of test [4] is PGC-1α, ATP6, ND1, ND6, NDUFB8 mRNA in kidney cortex.
Setting [5] is: 72 hr, repeated daily 100 μg/kg.
The mark [6] stands for this setting: 72 hr, repeated daily 100 μg/kg i.p.

With `COc1ccc(C[C@@H](C)NC[C@H](O)c2ccc(O)c(NC=O)c2)cc1` (racemic) [formoterol, rac-(R,R)—N-[2-hydroxy-5-[1-hydroxy-2-[1-(4-methoxyphenyl)propan-2-ylamino]ethyl]phenyl]formamide], in test [1] (24 hr, 100 μg/kg), the “ATP6 mRNA induction, heart” value amounted to 1.5 fold; the “ND1 mRNA induction, heart” value is on record as 2 fold; the “ND6 mRNA induction, heart” value was determined as 2 fold; the “NDUFB8 mRNA induction, heart” value came out at 2 fold. In test [1] (24 hr, 100 μg/kg), the “PGC-1α mRNA induction, heart” value worked out at 3 fold. Also, in test [1] (setting [5]), the “ND1 mRNA induction, heart” value was 4 fold; the “NDUFB8 mRNA induction, heart” value was determined as 2 fold; the “PGC-1α mRNA induction, heart” value is listed as 2 fold. The “PGC-1α in skeletal muscle” value in test [2] is “increased”. In test [3], the “Change in FCCP-uncoupled OCR” value is on record as “increased”. Besides, in the test with RPTC, the “Increase in mitochondrial (mtDNA) copy number” value is 2.5 fold. For the same compound, in test [4] (24 hr after 100 μg/kg i.p.), the “ATP6 mRNA induction, kidney” value turned out to be 2.5 fold; the “ND1 mRNA induction, kidney” value is 3.5 fold; the “ND6 mRNA induction, kidney” value amounted to 2.5 fold; the “NDUFB8 mRNA induction, kidney” value came out at 2 fold. In addition, the “PGC-1α mRNA induction, kidney” value in test [4] (24 hr after 100 μg/kg i.p.) came to 2.5 fold. Further, in test [4] (setting [6]), the “ND1 mRNA induction, kidney” value amounted to 2 fold; the “NDUFB8 mRNA induction, kidney” value is 2 fold; the “PGC-1α mRNA induction, kidney” value is 1.5 fold and 1.75 fold.
